# Assay results

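Luminescence from an EWS-FLI1 target-promoter (NR0B1) reporter, set against a CMV-promoter reporter, two days after silencing single genes in TC32 Ewing sarcoma cells. Each siRNA was applied at 20 nM. A z-score of the log NR0B1-over-CMV signal, less the median of siRNAs with the same seed; more negative means a stronger specific loss of the NR0B1 reporter.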

The strongest results of the screen are mostly left out here. Sequences are the guide (antisense) strand, without overhang.

| strand | gene | seed-corrected z-score |
|---|---|---|
| `UGGAGUUCUGGGCAGUUCC` | FBXL15 | -0.6817 |
| `UCUACUUCCAGCAUCAAUC` | PMPCB | 0.01185 |
| `UGUUGACUAAGCAUUGAGG` | ZNF846 | -0.7338 |
| `UAACUUGAUUGCAAUUUUC` | UQCRFS1P2 | 0.2277 |
| `AAGGUCCUCAUGGUAGAGC` | PARP10 | 0.8616 |
| `ACUGGUACUACUGUCCUGC` | C18orf25 | 1.326 |
| `UCAGGGAUCACCUUUCUCC` | MFSD5 | 0.5184 |
| `UGACUGCCCGAACUUCAGC` | HPS1 | -0.1308 |
| `UAUUGUGACAGCUUUUACC` | TRDN | -0.3388 |
| `AUCUCUUCGAGAGUUUUCC` | C22orf31 | -0.5547 |
| `UCCUGAUCUACAGUCACUC` | ZSCAN29 | -0.2347 |
| `UUAGGCAAAAUUGAGGUAU` | COQ10B | 0.04192 |
| `UUUUCUGUCACGAUGAUCU` | DDA1 | 0.001021 |
| `AAUUUGAGUCAAACAUGUG` | PLGLB2 | -1.668 |
| `AAACGAAUGAGUAGGAACC` | KLHL11 | 0.2509 |
| `UGAGAGUAAAGUUCAAACC` | DTD2 | 1.992 |
| `AUUCUUGUUACUAAAUUUC` | C10orf82 | 2.049 |
| `UCAAUUUCCAUAACAGAGG` | TMEM154 | -0.197 |
| `UUUCGCUCCUUCAUGCUGC` | WASH5P | -1.153 |
| `UUGGGUGUAAUGACAGAAG` | OR8U1 | -0.484 |
| `UUCGGAACCACACCUUCCA` | TECPR1 | 0.0737 |
| `UGGAUAUUAAGAAUCCUCC` | NPEPPS | -0.2577 |
| `UCCUUCUUCAGAUCGGGCU` | SOX9 | -0.2029 |
| `UACUUGUUCUGGAGUAUAC` | ALDOB | -0.4537 |
| `UAUGGUUGCACAGGAGGGC` | SPRR2G | -0.4101 |
| `UCCGAUGCAAUGAUUGUUC` | CPB2 | -0.3243 |
| `AGCUUUACUAGAAGUGAGC` | MPDU1 | 2.571 |
| `UACUUCUCCACAUAGGCUC` | RNPEPL1 | -0.07388 |
| `ACAGUUGCAAACACUAAUG` | EED | -0.6431 |
| `AUACUGAUUAAGUUGUUCC` | TNPO1 | -0.007764 |
| `AUAGCAAUAAGGGCGAUGU` | FOXS1 | 0.3289 |
| `UGUUCAUGAAGAUCCUAUG` | GALNT10 | 0.05926 |
| `UUACAAACAAAUUCUUCCA` | ADIPOR2 | -0.2212 |
| `UUGAUAACUAGCAUCUUGG` | GPBP1L1 | 0.148 |
| `AUACGUUGAAUUGUGACUG` | CPNE8 | -0.4377 |
| `AUAGUAUUCAAUCAGCUUC` | GNPDA1 | -0.5229 |
| `UAACCGUAUAGUCUCGAGG` | MED26 | -0.9905 |
| `UAUGCGGAAAUAUAGCAUC` | TYK2 | 0.1879 |
| `UAUGCGGCUGGGAUCUUCU` | RUFY4 | -0.1748 |
| `UGUCUAUUUAUUGUUGCUG` | NUPR1 | 0.0497 |
| `UUCUAACUCAUCAAUCUGC` | FILIP1L | 0.3604 |
| `UAAGCUGCUUCCGAUGCCG` | FAM24A | -1.882 |
| `AACGUAACGAGCACACUGG` | SLC25A33 | -0.09382 |
| `UAUUGUGAGAAUAUCCAGC` | PDE4B | -0.995 |
| `UUAUAGUUGCCCUCUGUCC` | KCNV2 | -1.359 |
| `UGAUGAUGUAGAUCCGUCC` | TSSK2 | -0.4788 |
| `UUUCUGAGUACAGGGACCG` | TRAP1 | -0.5432 |
| `AAAGAUAUCGCGCCUGAUG` | SLC27A4 | -0.365 |
| `UGUUUCUUCCGAUCACUGC` | ZIC5 | -0.06831 |
| `AUCGGUAAAAGUCAACUGG` | SLIT2 | -0.01561 |
| `UAUGAUAUUGAAAACGUGC` | POLE2 | -0.5604 |
| `UGUUGGUUGAGUUUGCUGG` | KCNJ6 | -0.3079 |
| `AGAACAAUUAGGAGGAUCC` | GPR180 | 1.354 |
| `UCUGCGUUUUCGUUCCUCC` | NEXN | 0.7599 |
| `UCAUAUAUUUCCACCUUGC` | ADTRP | 1.356 |
| `UUCGUUCCACUGAAUGGGC` | GLI3 | -0.2016 |
| `CUGAGGUCCUCGAAGAAAC` | ODF3B | -0.8595 |
| `ACAUAGUCCAUGUUGUCCC` | TRIM41 | -0.4488 |
| `AAUGGUUUAUCAUCUGUAU` | ZBTB34 | 1.209 |
| `UUCAUAGCAUCCGUUGAUC` | CAPN2 | -1.554 |
| `UCGUUGAUCAAAGUUGCUC` | PDGFRB | -0.4783 |
| `AGUUCCAUCACAAUUUUAC` | OTUD4 | -0.05329 |
| `UUGGUGUAAAACUUGAUUG` | MAP3K15 | 0.1654 |
| `UAGAGGAUAAGCCCACCAC` | NRXN3 | -0.6031 |
| `UUUGCUUUGUCUCUGAGCC` | LINC01104 | -0.9282 |
| `AAUGCUUUUAGGAAUGGGC` | FAM221A | -0.3798 |

The results are deposited in PubChem (AID1159506; NCATS, 2015).